One compound from ChEMBL document CHEMBL2384921, “An altered zinc-binding site confers resistance to a covalent inactivator of New Delhi metallo-beta-lactamase-1 (NDM-1) discovered by high-throughput screening” (Bioorg Med Chem, 2013) can be followed below.

This assay is described as follows: Inhibition of TEM-1 (unknown origin) using nitrocefin as substrate preincubated 10 mins followed by substrate addition measured after 20 mins relative to control.

Values joined by “and” are separate entries in the source; they are usually repeats but may differ in a detail not shown here. Identical values can stand only once.

`CCN(CC)C(=O)N[C@H]1C=C2c3cccc4[nH]cc(c34)C[C@H]2N(C)C1`: the Imax is 4% and 6%.
